The campaign covered roughly 340,000 compounds. About 4,500 (1.3%) were called active. The inconclusive results got no clear call from the source; some entries with a clear call stand among them for comparison. Calls follow the shape of the dose curve; as a rule, active = well fitted inhibition curve with a large enough effect; inconclusive = small, poorly fitted or top-dose-only effect, or another doubt; inactive = no such curve, though single readings can be large or run the other way. Potencies beside an inconclusive call are fits to weak or partial responses and may not hold up.
Biological target: DNA polymerase beta (Homo sapiens) (UniProt P06746)
Experiment: qHTS Assay for Inhibitors of DNA Polymerase Beta
Conditions: Pol beta primer extension/strand displacement, fluorescence kinetic; activity change, negative = inhibition: at 114 µM (top of the series)
Method in brief: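 Human Pol beta at 10 nM; strand-displacement substrate 50 nM final. Compound exposure 15 min at room temperature before start, reaction 10 min at room temperature.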
% is scaled to controls: 0 for no effect and ±100 for the full control effect; potency is read from the fitted curve at half-maximal effect.

Potency, active:
N#Cc1cc(C(=O)c2ccccc2O)cn(-c2nccs2)c1=O 20 µM, Cc1sc2ncnc(SCC(=O)NC(=O)NCc3ccco3)c2c1C 11.2 µM, O=C(O)CCc1ccc(-c2ccc(Br)cc2)n1CC(=O)O 35.5 µM, COc1ccc(-c2nc3ccccc3s2)cc1NC(=O)c1cccc(F)c1 12.6 µM, Cc1cccc2cc(C(c3nnnn3C(C)(C)C)N(Cc3ccco3)CC3CCCO3)c(=O)[nH]c12 (centres undefined) 31.6 µM, CCOc1ccc(C(=O)Nc2ccc(C(=O)OCc3cc(=O)n4c(C)csc4n3)cc2)cc1 17.8 µM, FC(F)c1nc2ccccc2[nH]1 50.1 µM, COc1ccc(N2Cc3cccc(C(=O)Nc4ccc(C)c(C)c4)c3C2=O)cc1 11.2 µM

Potency, inconclusive:
O=c1c2ccccc2cnn1-c1ccc2ccccc2c1 89.1 µM [inhibitor, single point], CC(NC(=O)c1ccco1)C(=O)OCC(=O)c1ccc(Cl)s1 (centres undefined) 79.4 µM [inhibitor, single point], O=C(Cc1ccccc1)NCCSCc1ccco1 0.316 µM [inhibitor, full curve, poor fit], CC(/C=N/NC(=O)c1cc(-c2ccc(C)o2)[nH]n1)=C\c1ccccc1 79.4 µM [inhibitor, partial curve], CCOC(=O)c1c(NC(=O)COc2cccc3c2CCN(C)C3=O)sc2c1CCC2 6.31 µM [inhibitor, full curve], COc1ccc(-n2c(O)c(/C=N/NS(=O)(=O)c3ccc(C)cc3)c3ccccc3c2=O)cc1OC 8.91 µM [inhibitor, partial curve], O=C(CCCN1C(=O)/C(=C\c2cccs2)SC1=S)Nc1cccnc1 39.8 µM [inhibitor, partial curve], O=C(CCC(=O)N1CCSc2ccccc21)NCCc1ccccc1 0.1 µM [inhibitor, full curve, poor fit], CCCCOC(=O)CSc1nc(N)c(C#N)c(-c2ccc(OCC)cc2)c1C#N 89.1 µM [inhibitor, single point], Cc1ccc(-c2nc3ncccc3o2)cc1NC(=O)c1cccnc1 89.1 µM [inhibitor, single point], c1ccc(-c2ccccc2OCCCCN2CCCCC2)cc1 2.51 µM [inhibitor, full curve, poor fit], CCOC(=O)Cc1nnc(NC(=O)COc2ccc(C)cc2)s1 39.8 µM [inhibitor, partial curve], COc1cccc(/C=C/C(=O)OCC(=O)Nc2ccc(Cl)cn2)c1 89.1 µM [inhibitor, single point], CSc1nnc(C)c(/C=C/Nc2ccc(F)cc2F)n1 17.8 µM [inhibitor, partial curve, poor fit], CCCSCCCNC(=O)c1sc2nc(C)cc(C)c2c1-n1cccc1 100 µM [inhibitor, single point], CCO[C@@H]1OC(C(=O)N2CCN(C)CC2)=C[C@H](c2coc3ccccc3c2=O)[C@H]1CCCO 79.4 µM [inhibitor, single point], CCOC(=O)c1c(C)[nH]c(C)c1S(=O)(=O)NCCN1CCN(c2ccccc2F)CC1 0.126 µM [inhibitor, full curve, poor fit], COc1ccc(/C=N/NC(=O)c2cccc(NC(=O)c3ccccc3Cl)c2)cc1OC 20 µM [inhibitor, partial curve, poor fit], Cc1ccc(-c2csc(NC(=O)CSc3nc4ccccc4o3)n2)cc1 28.2 µM [inhibitor, single point], O=C(N/C(=C\c1ccccc1)C(=O)N1CCOCC1)c1cccc(Br)c1 0.112 µM [inhibitor, full curve, poor fit], COCCNC(=O)CCCn1c(SCc2ccccc2C)nc2c(sc3ccccc32)c1=O 20 µM [inhibitor, full curve], COC(=O)c1c2c(nc3ccccc13)CCC2 0.199 µM [inhibitor, full curve, poor fit], CN(C)NC(=S)NC1(C)CCS(=O)(=O)C1 (centres undefined) 89.1 µM [inhibitor, single point], O=C(NNc1ccccc1F)C1CCC1 4.47 µM [inhibitor, single point], Cc1ccc(CNC(=O)Cn2ccn(-c3ccc(F)c(F)c3)c(=O)c2=O)cc1 14.1 µM [inhibitor, full curve], CCOc1ccc(-c2cc3c(=O)n(CC(=O)NCc4ccccc4)ccn3n2)cc1 8.91 µM [inhibitor, full curve], Cc1cc(C)n2ncc(C(=O)NC3CCCCC3)c2n1 0.708 µM [inhibitor, full curve], Cc1cccc(-n2nc3c(c2NC(=O)c2ccc(Br)o2)CSC3)c1C 12.6 µM [inhibitor, partial curve, poor fit], COc1ccc(C(=O)N2CCCC(c3ccccc3)=N2)cc1 0.282 µM [inhibitor, full curve, poor fit], O=C1C2=C(C(=O)c3ccccc31)C1O[C@](CCCCN3C(=O)c4ccccc4C3=O)(Cc3ccccc31)O2 0.02 µM [inhibitor, full curve, poor fit], Cc1nn(Cc2ccccc2)c2c1C(c1cccnc1)C(C#N)=C(N)O2 (centres undefined) 39.8 µM [inhibitor, single point], O=[N+]([O-])c1nn(-c2ccc(Cl)cc2)n(O)c1=NCc1ccncc1 89.1 µM [inhibitor, single point], O=C(Nc1nnc(-c2cccnc2)o1)c1cccc(Cl)c1 39.8 µM [inhibitor, single point], O=c1oc2ccccc2cc1-c1nc(-c2cccs2)cs1 31.6 µM [inhibitor, single point], CCCOc1ccc(CN(C(=O)c2nc(SC(C)C)ncc2Cl)C2CCS(=O)(=O)C2)cc1 (centres undefined) 79.4 µM [inhibitor, partial curve, poor fit], CCOC(=O)C1=C(COC(=O)[C@@H]2CCCN2S(=O)(=O)c2ccc(C)cc2)NC(=O)NC1C (some centres undefined) 12.6 µM [inhibitor, partial curve], CCCc1nn(C)c2c(=O)[nH]c(-c3cc(S(=O)(=O)N(CCO)CCO)ccc3OCC)nc12 79.4 µM [inhibitor, single point], Cc1nnsc1C(=O)NNc1ccc(C(C)C)cc1 89.1 µM [inhibitor, single point]

Activity change, negative = inhibition, inactive:
O=C(N/N=C/c1cccnc1)c1cccc(Cl)c1 35.3%, O=C(COC(=O)C1CC(=O)N(Cc2ccccc2)C1)c1ccc(Br)cc1 (centres undefined) 20.9%, CSC1=C(C#N)C(=O)NC(c2ccc(Cl)cc2)S1 (centres undefined) -29.8%, Cc1ccc(C(=O)/C=C\C(=O)c2ccc(C)cc2)cc1 4.02%, NC(N)=N/N=C/c1ccccc1 8.1%, CC1CCCCN1CCCNC(=O)Cn1ncc2c3ccccc3n(Cc3ccccc3)c2c1=O (centres undefined) -0.118%, CCCCCCSc1nnc2[nH]c(=O)cc(N)n12 -1.41%, Cn1cccc1/C=N/NC(=O)c1cc2ccccc2cc1O 0.231%, CCc1nnc(NS(=O)(=O)c2ccc(NC(=O)/C=C/C(=O)O)cc2)s1 45.5%, Cc1ccc(NC(=O)CN2C(=O)c3ccccc3Sc3ccc(C(=O)N4CCOCC4)cc32)cc1C -23.1%, O=C1Nc2ccccc2C1Cc1ccc(Br)cc1 (centres undefined) 10.4%, CCCOC(=O)c1c(-c2ccccc2)nc(CC)c(C(=O)SCC)c1CCC -17.2% [at 57.1 µM], CN1C=CC=C/C1=C1\SC(=S)N(Cc2ccccc2)C1=O 6.67%, CCC(Sc1nc2ccncc2[nH]1)C(=O)Nc1cc(C)ccc1C (centres undefined) 0.551%, COc1ccccc1CNS(=O)(=O)c1c(C)nc2sc(C)cn2c1=O -1.57%, Cc1cc(NC(=O)c2cc(-c3ccc(F)cc3)on2)nn1Cc1ccc(Cl)cc1 3.66%, Cc1nc(NC(=O)c2ccc(Br)o2)ccc1Br -0.0713%, O=c1cc(-c2ccc(Cl)cc2)[nH][nH]1 -15.3%, CCCCN(C)C(=O)C1CCC(Cn2c(=O)[nH]c3ccsc3c2=O)CC1 (centres undefined) -16.4%, COC(=O)Nc1ccc(S(=O)(=O)NNC(=O)c2c(O)c3ccccc3n(C)c2=O)cc1 -23.2%, O=C(CSc1ncccn1)c1ccccc1Br -20.1%, O=C(O)c1cc(S(=O)(=O)O)ccc1O 3.18%, CC(C)CNC(=O)c1cc(=O)[nH]c2ccc(S(=O)(=O)Nc3ccc(F)cc3)cc12 -1.81%, NNC(=O)c1ccc([N+](=O)[O-])c(CS(=O)(=O)c2ccc(Cl)cc2)c1 19.4%

Activity change, negative = inhibition, inconclusive:
O=C(COc1ccc(Cl)cc1)Nc1ccc(-c2nc3cc(Cl)ccc3o2)c(O)c1 -30.1% [inhibitor], Nc1ncc(N=Nc2cc(C(=O)O)ccc2Cl)s1 -158% [inhibitor], CCOC(=O)N1CCN(C(c2ccccc2)c2sc3nc(C)nn3c2O)CC1 (centres undefined) -30.3% [inhibitor], N#C/C(=C\c1ccc(-c2ccc([N+](=O)[O-])cc2)o1)C(=O)Nc1nc(-c2cccs2)cs1 -84.9% [inhibitor]

From PubChem BioAssay AID485314 (National Center for Advancing Translational Sciences (NCATS), 2010)
